PubChem BioAssay AID504784, Drosophila RNAi Screening Center – 2011

Aim: 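Fly genes whose silencing alters how much lipid cells keep in droplets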 (primary screen)
Cell system: Drosophila Kc167 embryonic cells
Reagent: long dsRNA against Drosophila genes, about 250 ng dsRNA per well
Duration: 4 days
Treatment: cells fed 400 µM oleic acid bound to BSA
Measurement: 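Microscope images give a droplet-to-nucleus area ratio, taken as log and converted to a screen-wide B-score; higher values mean greater lipid storage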
Direction: droplet/nuclear area B-score: higher = more stored lipid (overstorage)
The deposit covers about 17,000 reagents; shown is a random part of those that have a named target and a result. 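Each column is one replicate's B-score; the combined score over replicates was not deposited, so single values may mislead.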 A plus sign joins genes that one reagent is predicted to hit.

The opening 8 records, to show the layout:
gene knocked down,DRSC id,"droplet/nuclear area B-score, replicate 1","droplet/nuclear area B-score, replicate 2","droplet/nuclear area B-score, replicate 3"
eIF4A (GeneID 33835),DRSC03526,3.15,4.54,
CG15293 (GeneID 34828),DRSC01919,-0.477,-1.77,
Ifrd1 (GeneID 33489),DRSC00415,0.835,1.51,
Ifrd1 (GeneID 33489),DRSC00566,0.573,2.52,
CG10494 (GeneID 37453),DRSC04072,0.195,1.24,
CG14421 (GeneID 31285),DRSC17918,1.04,-0.533,
tok (GeneID 42944),DRSC17087,-0.93,0.307,
Jra (GeneID 36057),DRSC07447,-2.39,0.0675,

The list itself, from the start:
gene knocked down,DRSC id,"droplet/nuclear area B-score, replicate 1","droplet/nuclear area B-score, replicate 2","droplet/nuclear area B-score, replicate 3"
eIF4A (GeneID 33835),DRSC03526,3.15,4.54,
CG15293 (GeneID 34828),DRSC01919,-0.477,-1.77,
Ifrd1 (GeneID 33489),DRSC00415,0.835,1.51,
Ifrd1 (GeneID 33489),DRSC00566,0.573,2.52,
CG10494 (GeneID 37453),DRSC04072,0.195,1.24,
CG14421 (GeneID 31285),DRSC17918,1.04,-0.533,
tok (GeneID 42944),DRSC17087,-0.93,0.307,
Jra (GeneID 36057),DRSC07447,-2.39,0.0675,
CG11454 (GeneID 33175),DRSC00310,-1.25,-0.696,
Tcs3 (GeneID 39811),DRSC10461,0.0349,-0.216,
CG12831 (GeneID 35631),DRSC06179,-0.167,-0.299,
Kpc2 (GeneID 37261),DRSC07635,-0.607,-2.11,
Tsp42Ej (GeneID 35620),DRSC06113,-2.47,-1.66,
dpr3 (GeneID 3346208),DRSC00395,0.165,0.673,
dpr3 (GeneID 3346208),DRSC00396,-0.449,1.38,
dpr3 (GeneID 3346208),DRSC21369,-3.74,-4.4,
CG9471 (GeneID 41197),DRSC16499,-0.659,-0.00508,
Obp50c + Obp50b,DRSC05482,-0.0432,-0.59,
GstE4 (GeneID 37109),DRSC06674,-0.803,0.525,
Ssrp (GeneID 37767),DRSC04658,0.261,0.805,
CG43861 (GeneID 35284),DRSC02308,-0.981,0.118,
CG11378 (GeneID 31060),DRSC18627,0.42,1.44,
CG33268 (GeneID 2768979),DRSC10143,-0.972,-0.636,
CG33013 (retired record) (GeneID 318830),DRSC06286,0.0574,-2.11,
Gyg (GeneID 37419),DRSC03850,0.194,0.706,
Gyg (GeneID 37419),DRSC04556,-1.65,0.339,
CG30099 (GeneID 36818),DRSC07039,-0.348,-0.478,
Tango6 (GeneID 35155),DRSC02671,0.868,-0.12,
AOX2 (GeneID 41895),DRSC15338,-0.0485,0.798,
CG10996 (GeneID 32345),DRSC19363,0.347,-1.68,
dtn (GeneID 31555),DRSC17939,-1.98,-2.49,
CG33332 (GeneID 2768669),DRSC15504,3.62,0.931,
CG6683 (GeneID 38970),DRSC10694,0.16,0.181,
RpS13 (GeneID 34149),DRSC03419,1.52,-1.28,
CG13138 (GeneID 34381),DRSC02235,-0.0166,0.0968,
Hacl (GeneID 37285),DRSC06061,2.26,3.26,
CG10041 (GeneID 41496),DRSC14179,1.56,0.161,
dup (GeneID 47121),DRSC07088,-0.0409,-0.446,
cg (GeneID 36571),DRSC07650,-0.562,0.067,
cg (GeneID 36571),DRSC23142,-1.35,-0.606,
CG15353 (GeneID 50191),DRSC00383,-0.0196,-0.911,0.634
CG42671 (GeneID 39268),DRSC09093,-1.06,-2.22,
CG42671 (GeneID 39268),DRSC10321,-0.954,-1.69,
Ack (GeneID 38489),DRSC08135,-0.947,-1.02,
Hex-A (GeneID 45875),DRSC18259,-1.9,-3.65,-3.32
CG8736 (GeneID 35841),DRSC07255,1.23,0.0772,
CG13868 (GeneID 37302),DRSC06427,0.0961,-1.51,
Ntf-2r (GeneID 35101),DRSC02019,-0.0719,-1.04,
SWIP (GeneID 32594),DRSC19540,0.41,-3.86,
CG32085 (GeneID 39311),DRSC10138,-0.415,0.0108,
CG32085 (GeneID 39311),DRSC10139,-0.711,-1.68,
CG32085 (GeneID 39311),DRSC10576,-0.0151,1.28,
Rbp (GeneID 41880),DRSC15724,3.81,2.89,
Rbp (GeneID 41880),DRSC15726,3.9,1.73,
Zaf1 (GeneID 41394),DRSC16121,0.175,3.51,
CG13157 (GeneID 36355),DRSC06282,-0.552,,
how (GeneID 42596),DRSC16966,3.33,3.63,
CG7512 (GeneID 39289),DRSC10863,-1.34,-1.84,
mus81 (GeneID 31044),DRSC18180,0.246,1.15,
mus81 (GeneID 31044),DRSC18644,-0.849,1.42,
CG32944 (GeneID 40560),DRSC12138,0.976,0.0108,
CG32944 (GeneID 40560),DRSC12341,1.66,0.637,
SmydA-1 (GeneID 36581),DRSC07200,0.457,-0.299,
CG12640 (GeneID 31973),DRSC17847,0.115,0.00446,-1.19
hog (GeneID 318105),DRSC19057,0.159,1.23,
DIP-beta (GeneID 33125),DRSC20489,1.6,0.431,
DIP-beta (GeneID 33125),DRSC20490,0.452,-0.941,
DIP-beta (GeneID 33125),DRSC20505,-0.025,-0.169,
CG10948 (GeneID 39459),DRSC09806,-1.71,0.208,
CG6340 (GeneID 32482),DRSC19987,-2.19,0.00877,-1.32
ND-51L1 (GeneID 36998),DRSC06072,-0.707,0.355,
Met (GeneID 32114),DRSC20284,-0.189,1.29,-0.215
aos (GeneID 39833),DRSC11323,1.85,-0.601,
AdoR (GeneID 43583),DRSC16556,0.0592,2.1,
Lsp1beta (GeneID 33274),DRSC00757,-0.241,-0.311,
scf (GeneID 38145),DRSC08735,0.788,0.15,
bun (GeneID 34665),DRSC01255,0.025,-0.0534,
bun (GeneID 34665),DRSC03500,3.62,0.876,
bun (GeneID 34665),DRSC23041,1.19,1.58,
CG5001 (GeneID 33308),DRSC00673,0.225,-0.147,
Trap1 (GeneID 35559),DRSC05019,0.74,0.238,
CG30413 (GeneID 246601),DRSC04001,-1.09,0.701,
rumpel (GeneID 31674),DRSC18436,-0.6,1.44,
